Source: the supplement of paper PMC10849652
This is one part of the list. Residues, ends and D or L forms follow the SMILES beside them. *: point of attachment. Cbz = O=C(OCc1ccccc1)*

Chains of the proteins cited; added tags and fusions are not shown. Lines headed by an entry give the natural chain unless they say otherwise; changes in a name come on top.
UniProt P50995, whole entry, looked up: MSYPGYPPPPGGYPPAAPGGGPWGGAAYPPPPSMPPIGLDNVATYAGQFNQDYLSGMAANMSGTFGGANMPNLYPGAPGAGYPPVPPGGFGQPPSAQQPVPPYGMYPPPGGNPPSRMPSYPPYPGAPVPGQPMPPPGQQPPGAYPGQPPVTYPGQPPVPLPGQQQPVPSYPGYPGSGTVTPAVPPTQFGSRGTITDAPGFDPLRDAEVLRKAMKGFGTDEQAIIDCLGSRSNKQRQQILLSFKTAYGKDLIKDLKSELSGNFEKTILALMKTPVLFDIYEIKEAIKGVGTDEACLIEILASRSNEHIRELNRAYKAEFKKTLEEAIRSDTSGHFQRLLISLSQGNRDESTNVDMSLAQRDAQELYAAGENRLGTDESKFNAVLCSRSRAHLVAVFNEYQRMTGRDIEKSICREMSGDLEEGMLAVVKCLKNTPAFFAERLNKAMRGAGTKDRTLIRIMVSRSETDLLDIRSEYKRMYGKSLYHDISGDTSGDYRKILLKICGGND
UniProt P48444: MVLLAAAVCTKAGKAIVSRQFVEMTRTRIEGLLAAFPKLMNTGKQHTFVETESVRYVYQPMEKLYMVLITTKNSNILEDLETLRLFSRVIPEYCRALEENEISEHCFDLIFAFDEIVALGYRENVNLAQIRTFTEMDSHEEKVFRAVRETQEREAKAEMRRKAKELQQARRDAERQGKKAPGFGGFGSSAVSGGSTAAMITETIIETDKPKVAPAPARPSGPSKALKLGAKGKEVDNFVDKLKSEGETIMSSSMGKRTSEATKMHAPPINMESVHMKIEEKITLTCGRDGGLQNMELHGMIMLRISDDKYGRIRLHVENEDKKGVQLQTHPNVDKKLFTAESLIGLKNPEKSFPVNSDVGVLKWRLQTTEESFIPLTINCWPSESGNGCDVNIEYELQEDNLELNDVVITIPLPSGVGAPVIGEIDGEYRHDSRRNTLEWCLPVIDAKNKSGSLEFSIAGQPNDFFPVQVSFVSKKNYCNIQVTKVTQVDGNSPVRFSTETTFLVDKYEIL
UniProt Q9BXS5: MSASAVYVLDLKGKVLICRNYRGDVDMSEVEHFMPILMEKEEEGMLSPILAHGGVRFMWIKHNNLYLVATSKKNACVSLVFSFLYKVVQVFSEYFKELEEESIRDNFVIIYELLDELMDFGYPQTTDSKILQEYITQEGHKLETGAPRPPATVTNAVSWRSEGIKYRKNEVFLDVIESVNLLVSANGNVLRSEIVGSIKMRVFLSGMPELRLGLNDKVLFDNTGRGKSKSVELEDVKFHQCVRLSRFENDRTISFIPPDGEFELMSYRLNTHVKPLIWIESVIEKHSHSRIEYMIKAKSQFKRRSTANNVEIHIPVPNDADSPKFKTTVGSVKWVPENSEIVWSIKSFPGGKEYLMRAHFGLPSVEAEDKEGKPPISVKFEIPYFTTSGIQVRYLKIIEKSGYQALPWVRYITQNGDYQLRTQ
UniProt Q9BQD7: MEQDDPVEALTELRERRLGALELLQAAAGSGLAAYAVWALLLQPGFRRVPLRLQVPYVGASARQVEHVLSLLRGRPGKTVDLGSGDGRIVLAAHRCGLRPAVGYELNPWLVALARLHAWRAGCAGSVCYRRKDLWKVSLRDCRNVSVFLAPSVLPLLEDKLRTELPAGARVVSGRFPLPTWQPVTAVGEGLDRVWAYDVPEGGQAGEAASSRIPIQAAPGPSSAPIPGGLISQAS
UniProt Q8IV38: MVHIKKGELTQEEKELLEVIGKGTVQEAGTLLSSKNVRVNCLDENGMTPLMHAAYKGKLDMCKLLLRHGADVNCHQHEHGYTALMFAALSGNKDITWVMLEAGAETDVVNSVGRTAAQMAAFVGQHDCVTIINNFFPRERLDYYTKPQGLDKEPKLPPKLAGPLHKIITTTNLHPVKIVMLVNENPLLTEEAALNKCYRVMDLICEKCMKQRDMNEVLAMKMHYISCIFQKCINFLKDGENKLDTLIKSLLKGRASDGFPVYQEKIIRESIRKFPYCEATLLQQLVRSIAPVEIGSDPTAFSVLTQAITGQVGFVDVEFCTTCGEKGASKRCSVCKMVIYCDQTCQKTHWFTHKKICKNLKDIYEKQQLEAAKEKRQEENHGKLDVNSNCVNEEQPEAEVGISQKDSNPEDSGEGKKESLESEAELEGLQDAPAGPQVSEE
UniProt Q6NXT1: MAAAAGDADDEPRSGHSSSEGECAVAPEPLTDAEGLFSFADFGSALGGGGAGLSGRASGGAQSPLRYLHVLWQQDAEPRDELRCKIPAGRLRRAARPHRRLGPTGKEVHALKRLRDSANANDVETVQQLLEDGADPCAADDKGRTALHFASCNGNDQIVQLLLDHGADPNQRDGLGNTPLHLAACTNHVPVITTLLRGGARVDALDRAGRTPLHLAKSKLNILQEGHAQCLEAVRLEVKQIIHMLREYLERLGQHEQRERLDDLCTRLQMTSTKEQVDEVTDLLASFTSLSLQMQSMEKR
UniProt Q92688: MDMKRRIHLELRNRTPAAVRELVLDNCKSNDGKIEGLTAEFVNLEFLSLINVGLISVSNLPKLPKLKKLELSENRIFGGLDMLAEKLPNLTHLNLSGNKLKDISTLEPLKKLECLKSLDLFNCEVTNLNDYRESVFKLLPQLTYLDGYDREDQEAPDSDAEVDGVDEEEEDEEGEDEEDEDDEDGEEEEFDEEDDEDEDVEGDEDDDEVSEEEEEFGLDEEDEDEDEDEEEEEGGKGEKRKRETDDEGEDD
UniProt Q9Y4X5: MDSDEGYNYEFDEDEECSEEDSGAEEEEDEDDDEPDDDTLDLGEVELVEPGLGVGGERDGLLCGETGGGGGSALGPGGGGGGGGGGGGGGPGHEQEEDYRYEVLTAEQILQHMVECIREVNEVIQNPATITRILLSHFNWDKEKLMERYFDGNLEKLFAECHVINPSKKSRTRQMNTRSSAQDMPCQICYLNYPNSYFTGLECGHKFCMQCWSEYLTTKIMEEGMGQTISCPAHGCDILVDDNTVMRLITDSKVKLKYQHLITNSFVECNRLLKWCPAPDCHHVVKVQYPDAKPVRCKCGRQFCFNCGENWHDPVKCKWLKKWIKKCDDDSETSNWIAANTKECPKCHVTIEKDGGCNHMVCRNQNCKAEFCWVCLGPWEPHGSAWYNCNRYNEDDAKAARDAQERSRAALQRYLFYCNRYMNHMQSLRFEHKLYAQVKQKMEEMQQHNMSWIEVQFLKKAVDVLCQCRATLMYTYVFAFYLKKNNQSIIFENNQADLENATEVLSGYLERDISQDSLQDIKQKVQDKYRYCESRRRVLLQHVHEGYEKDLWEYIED
UniProt P02654: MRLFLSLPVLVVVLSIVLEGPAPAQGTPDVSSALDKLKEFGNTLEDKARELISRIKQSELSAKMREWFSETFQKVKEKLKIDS
UniProt P61204: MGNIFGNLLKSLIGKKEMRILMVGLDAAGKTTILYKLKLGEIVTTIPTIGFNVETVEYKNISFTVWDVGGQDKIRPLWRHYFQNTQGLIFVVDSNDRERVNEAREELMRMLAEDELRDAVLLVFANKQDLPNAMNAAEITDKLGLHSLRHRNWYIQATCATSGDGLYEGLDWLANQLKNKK
UniProt P52565: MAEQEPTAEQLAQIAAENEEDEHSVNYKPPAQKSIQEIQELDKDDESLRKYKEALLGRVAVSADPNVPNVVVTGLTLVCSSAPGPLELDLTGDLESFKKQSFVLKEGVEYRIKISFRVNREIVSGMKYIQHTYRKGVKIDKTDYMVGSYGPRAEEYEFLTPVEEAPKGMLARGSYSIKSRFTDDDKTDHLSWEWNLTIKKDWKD
UniProt P84085: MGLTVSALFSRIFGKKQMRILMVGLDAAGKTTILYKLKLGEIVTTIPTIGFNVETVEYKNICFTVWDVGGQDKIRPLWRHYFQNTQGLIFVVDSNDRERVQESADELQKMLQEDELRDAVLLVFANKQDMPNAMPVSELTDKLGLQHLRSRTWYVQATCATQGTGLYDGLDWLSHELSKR
UniProt Q9P2R3: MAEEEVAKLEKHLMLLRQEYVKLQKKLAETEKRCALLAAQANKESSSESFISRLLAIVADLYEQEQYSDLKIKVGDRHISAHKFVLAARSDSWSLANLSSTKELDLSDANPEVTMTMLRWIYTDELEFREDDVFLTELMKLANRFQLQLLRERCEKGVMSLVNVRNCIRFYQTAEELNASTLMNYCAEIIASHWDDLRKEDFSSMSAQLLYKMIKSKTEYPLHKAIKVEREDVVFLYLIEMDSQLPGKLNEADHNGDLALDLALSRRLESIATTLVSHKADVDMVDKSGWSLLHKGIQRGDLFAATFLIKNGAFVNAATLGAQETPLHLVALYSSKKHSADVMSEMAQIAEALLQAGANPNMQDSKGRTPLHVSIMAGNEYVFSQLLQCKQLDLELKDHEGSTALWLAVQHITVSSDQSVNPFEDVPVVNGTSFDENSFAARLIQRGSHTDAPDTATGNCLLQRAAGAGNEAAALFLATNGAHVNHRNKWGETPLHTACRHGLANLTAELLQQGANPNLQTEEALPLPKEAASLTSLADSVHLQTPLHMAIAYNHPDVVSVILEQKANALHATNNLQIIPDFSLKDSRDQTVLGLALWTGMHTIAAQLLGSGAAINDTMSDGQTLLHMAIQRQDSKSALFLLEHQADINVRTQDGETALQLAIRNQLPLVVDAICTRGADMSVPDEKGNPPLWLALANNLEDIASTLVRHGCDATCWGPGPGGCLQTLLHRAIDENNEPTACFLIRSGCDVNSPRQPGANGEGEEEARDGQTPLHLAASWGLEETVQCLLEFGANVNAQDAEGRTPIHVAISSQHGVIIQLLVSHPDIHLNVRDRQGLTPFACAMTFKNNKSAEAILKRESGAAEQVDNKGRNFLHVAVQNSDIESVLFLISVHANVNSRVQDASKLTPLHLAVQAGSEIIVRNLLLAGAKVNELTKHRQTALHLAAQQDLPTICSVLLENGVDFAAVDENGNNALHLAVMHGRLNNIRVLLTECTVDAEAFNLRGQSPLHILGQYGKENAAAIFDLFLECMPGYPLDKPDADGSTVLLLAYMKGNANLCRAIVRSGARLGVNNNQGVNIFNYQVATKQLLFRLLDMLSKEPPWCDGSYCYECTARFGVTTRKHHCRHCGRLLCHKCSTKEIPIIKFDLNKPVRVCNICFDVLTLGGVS
UniProt P09525: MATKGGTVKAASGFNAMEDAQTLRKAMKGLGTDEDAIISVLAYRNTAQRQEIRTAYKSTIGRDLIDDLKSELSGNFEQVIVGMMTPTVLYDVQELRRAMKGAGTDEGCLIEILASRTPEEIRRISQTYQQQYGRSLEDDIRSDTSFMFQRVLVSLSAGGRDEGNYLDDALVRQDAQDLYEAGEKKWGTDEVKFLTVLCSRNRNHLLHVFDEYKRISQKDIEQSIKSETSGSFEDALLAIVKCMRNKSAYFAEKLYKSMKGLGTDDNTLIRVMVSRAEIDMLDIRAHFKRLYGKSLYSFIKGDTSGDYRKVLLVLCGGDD
UniProt Q8N392: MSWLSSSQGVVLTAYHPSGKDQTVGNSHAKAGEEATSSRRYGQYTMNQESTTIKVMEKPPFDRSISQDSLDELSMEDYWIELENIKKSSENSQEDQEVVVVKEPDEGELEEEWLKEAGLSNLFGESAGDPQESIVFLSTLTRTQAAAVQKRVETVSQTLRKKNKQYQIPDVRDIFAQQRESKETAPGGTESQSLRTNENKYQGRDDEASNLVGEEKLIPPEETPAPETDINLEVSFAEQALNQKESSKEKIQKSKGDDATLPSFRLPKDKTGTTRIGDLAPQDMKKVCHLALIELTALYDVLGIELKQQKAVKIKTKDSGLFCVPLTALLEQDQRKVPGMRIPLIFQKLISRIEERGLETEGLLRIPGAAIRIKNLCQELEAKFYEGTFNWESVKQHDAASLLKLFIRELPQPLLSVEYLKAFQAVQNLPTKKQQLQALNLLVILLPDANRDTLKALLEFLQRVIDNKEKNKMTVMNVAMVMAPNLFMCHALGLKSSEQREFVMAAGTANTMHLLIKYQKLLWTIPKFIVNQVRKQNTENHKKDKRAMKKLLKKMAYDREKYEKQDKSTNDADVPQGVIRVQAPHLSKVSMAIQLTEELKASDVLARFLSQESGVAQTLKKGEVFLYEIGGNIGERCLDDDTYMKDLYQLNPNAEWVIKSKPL
UniProt Q9NP61: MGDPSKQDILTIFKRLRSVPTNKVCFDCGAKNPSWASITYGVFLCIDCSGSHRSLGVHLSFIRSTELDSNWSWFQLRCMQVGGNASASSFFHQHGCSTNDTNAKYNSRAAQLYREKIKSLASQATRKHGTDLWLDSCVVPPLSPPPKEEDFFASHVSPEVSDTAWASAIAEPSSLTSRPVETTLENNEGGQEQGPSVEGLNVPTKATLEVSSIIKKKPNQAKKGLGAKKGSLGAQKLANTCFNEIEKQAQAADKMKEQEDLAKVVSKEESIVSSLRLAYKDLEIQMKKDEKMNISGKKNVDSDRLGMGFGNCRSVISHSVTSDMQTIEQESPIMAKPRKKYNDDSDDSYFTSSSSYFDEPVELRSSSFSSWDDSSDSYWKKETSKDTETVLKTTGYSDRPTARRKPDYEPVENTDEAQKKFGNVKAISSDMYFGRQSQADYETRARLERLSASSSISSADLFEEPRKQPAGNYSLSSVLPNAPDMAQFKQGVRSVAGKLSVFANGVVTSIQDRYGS

The targets below were run with CC(C)C[C@@H](C=O)NC(=O)[C@H](CC(C)C)NC(=O)[C@H](CC(C)C)NC(=O)OCc1ccccc1 (assay: log2 fold change, soluble protein after heating vs DMSO (PISA); higher = thermal stabilisation; K562 cells, 10 uM, 30 min; active = over 0.2 and 3.5 SD of the protein, either way, in both replicates (recomputed)).
How it was run: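 K562 cells at 2×10^6 cells/mL were given 10 μM compound for 30 min. Aliquots then went through 3 min of heating across 48°C-58°C, were pooled, and were extracted in PBS with 0.5% NP-40 at 4°C, and the supernatant after 21,000xg for 90 min was quantified by TMTpro 16plex LC-MS/MS with channel sums equalised. Thermal stability relative to control samples, from duplicates, is given as log2 fold change.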

log2 fold change, inactive:
ANXA11 (UniProt P50995) -0.039
ARF1 (UniProt P84077) 0.042
ARCN1 (UniProt P48444) -0.008
AP1M1 (UniProt Q9BXS5) -0.048
ANTKMT (UniProt Q9BQD7) 0.05
ANK3 (UniProt Q12955) 0.106
ANKMY2 (UniProt Q8IV38) -0.034
ANAPC16 (UniProt Q96DE5) 0.025
ANKRD54 (UniProt Q6NXT1) -0.041
ANP32B (UniProt Q92688) -0.01
ARIH1 (UniProt Q9Y4X5) -0.01
APOC1 (UniProt P02654) -0.023
ANXA6 (UniProt P08133) 0.122
ARF3 (UniProt P61204) -0.018
ARHGDIA (UniProt P52565) -0.007
ARF5 (UniProt P84085) -0.027
ANKFY1 isoform 4 (UniProt Q9P2R3) 0.18
API5 isoform 2 (UniProt Q9BZZ5) 0.008
ANXA4 (UniProt P09525) 0.067
ARHGAP18 (UniProt Q8N392) 0.061
ANXA2 isoform 2 (UniProt P07355) -0.082
ARFGAP3 (UniProt Q9NP61) 0.063
APEH (UniProt P13798) -0.021

A stretch of the results above, for reference:
log2 fold change, inactive:
APOC1 (UniProt P02654) -0.023
ANXA6 (UniProt P08133) 0.122
ARF3 (UniProt P61204) -0.018
ARHGDIA (UniProt P52565) -0.007
ARF5 (UniProt P84085) -0.027
